The chains are these.
B1: il2ra_site1_3nfp_normal_mot_HHH_b1_01335_af2_000000105_0001_39_53_H_._HHH_b2_08384_0001_0000100004_0000001_0_af2pred_0001_af2pred_swapped (protein)
chain: SSSSDEEIREEVEELLERAKHISDAKEVQELLREALRLAKELRDPELRRLIQEVMRELAKSSSSS
B2: il2ra_site1_2b5i_sap_8_mot_HHH_b2_07226_000000072_0001_42_55_H_._HHH_b1_03995_0001_0000400027_0000001_0_0001 (protein)
chain: SSSSDEEDEEVDELFREASELWRNGNPEEARRVLEEAEKLAREINDPKAEEDLRRFLEMLSSSSS
B3: il2ra_site2_3nfp_sap_21_mot_HHH_b1_06586_000000201_0001_1_18_H_._HHH_b2_00107_0001_0000200010_0000001_0_0001_af2pred_0001_1_af2pred_swapped (protein)
chain: SSSSSSDLEEEAHELVEEAKEKADEHQRFALRAAELSAKILGDPKYFEDALHAARLILSSSSSSS
B4: il2ra_site2_2erj_normal_mot_HHH_b2_02500_af2_000000175_0001_19_35_H_._HHH_b2_04507_af2_0001_0000500005_0000001_0 (protein)
chain: SSSSNEELRRLYELANRVLHAEARGDEEELQRLLEEAKELAEKLQSENILELLEQLERLLSSSSS
B5: il2ra_site1_1z92_sap_20_mot_HHH_b1_00285_000000009_0001_24_39_H_._HHH_b1_00621_0001_0000100001_0000001_0_0001 (protein)
chain: DVEEELRELAKELGLPPEELEELLERLERRSDAPPEVALRHLLIVLKLAGSAETVKRFVEKLEKS
B6: il2ra_site2_2erj_normal_mot_HHH_b2_04899_000000077_0001_20_36_H_._HHH_b1_07730_0001_0000100001_0000001_0 (protein)
chain: SSSSDVEERVEELLREAEELLERGNPEEAFVVLSEASHIAARNDNPELLRLLLELHEQIFSSSSS
B7: il2ra_site2_2erj_sap_18_mot_e3be008b04150b5953e9f850c9479793_0001_000000253_0001_15_29_H_._HHH_b2_07896_0001_0000300037_0000001_1_0001_af2pred_0001_1_af2pred_sw … (protein)
chain: SSSSSSEAEELVEELVEELNLSEELKKLLEEIAKLLEESGYNEELAREHLKLAVENLEESSSSSS
B8: il2ra_site2_2erj_normal_mot_HHH_b2_01275_af2_000000073_0001_23_39_H_._HHH_b2_07286_0001_0000200028_0000001_0 (protein)
chain: SSSSDEEERRVRELLEEAEELHERGNLEEVYKLAVEALHVASEAGDQELQREIAKFVEELSSSSS
B9: il2ra_site2_3nfp_sap_13_mot_HHH_b1_06788_af2_000000115_0001_19_36_H_._HHH_b1_05865_0001_0000300012_0000001_1_0001 (protein)
chain: SSSSDEERVRELLERAEELLERGNPEEARKLLAEAAHVAWEANNPELFMAVAEFLFRHAQSSSSS
B10: il2ra_site1_2b5i_normal_mot_HHH_b2_06557_000000121_0001_42_56_H_._HHH_b2_02609_af2_0001_0000300044_0000001_0 (protein)
chain: SSSSDEVHERVDELNNQAARAYKNGNPEEAKELIEEALELAEENNDERLAEQLKEYLRFVSSSSS
B11: il2ra_site1_2b5i_sap_15_mot_f5ff40796168375b462bec8614a1db4a_0001_1_000000138_0001_53_65_H_._HHH_b1_00174_af2_0001_0000300025_0000001_0_0001_af2pred_dldesign_0_ … (protein)
chain: SSSSCPDHVEARRLLLEADALRQAGREEEAAEVLARLGALAAASGCPLVRKLYAELQRLESSSSS
B12: il2ra_site2_3nfp_sap_13_mot_HHH_b2_07946_000000046_0001_20_36_H_._HHH_b2_01751_0001_0000100004_0000001_0_0001 (protein)
chain: SSSSNEYVKAALELLRLALEENDDEQFERLVEMIRLAVETAEDEEAREILERLEEEFERRLSSSS
B13: il2ra_site1_3nfp_sap_14_mot_HHH_b1_03429_af2_000000091_0001_1_19_H_._HHH_b2_06817_0001_0000200013_0000001_0_0001_af2pred_0001_af2pred_swapped (protein)
chain: SVEEVLEELKRDGNAAVRRLAEDVEAALKLGIPPEEIIRALKRAAEQTKDPKVREVAELLEQLLK
B14: il2ra_site2_2erj_normal_mot_HHH_b1_05749_af2_000000086_0001_23_39_H_._HHH_b2_06624_af2_0001_0000700026_0000001_0 (protein)
chain: SSSSSDQELLEFIYKLAAELGASAEEVQEAFERATELLRRGVSEEEIEEILREFLEELRHSSSSS
B15: il2ra_site2_3nfp_normal_mot_HHH_b1_06589_000000230_0001_37_50_H_._HHH_b1_03508_0001_0000300009_0000001_0_af2pred_0001_af2pred (protein)
chain: SSSSDEEELEELLERIEEAVRRGDHELFEELARRLLELIRELGDVHMLIRLAELKKRFEQGSSSS
B16: il2ra_site2_2erj_sap_22_mot_HHH_b2_05804_000000098_0001_44_58_H_._HHH_b2_06227_af2_0001_0000100001_0000001_0_0001_af2pred_0001_af2pred (protein)
chain: SSSSDQEVRELIEEAEEAIRRNDPQAVFRLNREAQRLAEELNDPELRKFVAELARVAAEFLSSSS
B17: il2ra_site1_3nfp_sap_8_mot_1dfc56a8f07a39e834a69883c800ee5d_0001_1_af2_000000182_0001_1_15_H_._ems_3hC_1146_0001_0001800033_0000001_0_0001_af2pred_0001_af2pred_ … (protein)
chain: SEEEELKRAVEQLAKRFGVPHVEVETENGKYHVTIEGDNREAKLVAKLIEEFAKQRNIDLTVEVE
B18: il2ra_site2_2erj_normal_mot_HHH_b1_03107_000000098_0001_39_52_H_._HHH_b1_01890_0001_0000200005_0000001_0 (protein)
chain: SSSSDALEIAAELSVEALELFKNGNPEEARRVIEEAEEEIKELGNEAALRYLEFARRDLERSSSS

This is one part of the list.

The target of this test is il2ra, P01589. Description: yeast display titration.
Turning to B1, the “apparent Kd” value is “inactive: no binding seen”.
The result for B2 reads “inactive: no binding seen”.
The result for B3 reads “inactive: no binding seen”.
On to B4, for which the “apparent Kd” value was “inactive: no binding seen”.
For B5, the “apparent Kd” value is “inactive: no binding seen”.
Turning to B6, the “apparent Kd” value was “inactive: no binding seen”.
Under B7 stands “inactive: no binding seen”.
Take B8: the “apparent Kd” value was “inactive: no binding seen”.
The result for B9 reads “inactive: no binding seen”; that for B10, “inactive: no binding seen”.
Consider B11, for which the “apparent Kd” value is “inactive: no binding seen”.
The result for B12 reads “inactive: no binding seen”; that for B13, “inactive: no binding seen”; that for B14, “inactive: no binding seen”.
Consider B15, for which the “apparent Kd” value is “inactive: no binding seen”.
Under B16 stands “inactive: no binding seen”.
Under B17 stands “inactive: no binding seen”; under B18, “inactive: no binding seen”.

For the origin of these results see paper PMC10163288.
